The whole screen tested about 360,000 compounds, of which about 9,100 (2.5%) were called active. This list was built around the results that the source calls inconclusive (neither active nor inactive); the mix of calls is not that of the screen. Cut-off read from the data, not from the text of the source: active = max response below about -50%; inconclusive = no clear call, values can overlap the other calls; inactive = above that.
molecular target: D(3) dopamine receptor (Homo sapiens) (UniProt P35462); test: qHTS of D3 Dopamine Receptor Antagonist: qHTS; settings: D3R cells, DiscoveRx beta-arrestin luminescence, antagonist mode; active compounds read low
Source text: D3 DARs represent a very important target for the treatment of several neuropsychiatric disorders. Indeed, one of the most promising therapeutic applications for the D3 DAR is in the area of addiction and related disorders. […] These findings have been observed with a number of addictive substances including cocaine, amphetamine, nicotine, and alcohol. […] Antagonism of the D3 DAR may also be therapeutic in the treatment of schizophrenia or psychosis. […] Since the D3 DAR is expressed in areas of the CNS associated with the control of mood and emotion, it has been hypothesized that selective antagonism of the D3 DAR may be effective in treating psychosis without inducing the motor side effects typically seen with D2 DAR antagonists.
This part of the project aims to discover novel antagonist.
NIH Chemical Genomics Center [NCGC]
NIH Molecular Libraries Probe Centers Network [MLPCN]
Assay Submitter (PI): David Sibley, NINDS
Freshly passaged cells are plated in 1536 well white, solid bottom plates at a density of 1500 cells/well in 3microl of complete media. After an overnight incubation at 37 degrees C in 5% CO2, cells are loaded with 23nl of test compound from the compound library (as well as dopamine controls) using a 1536 pintool and incubated at 37 degrees C for 90 minutes. Two microliters of DiscoveRx reagent is then added to all cells, and they are incubated for an additional 30 - 60 minutes at room temperature. Following incubation, luminescence is measured on a ViewLux CCD-based luminometer reader using a 20 sec exposure time.
% is set by controls: 0 for no effect and ±100 for the full control effect.

Amino acid sequences for entries named in this document (tags omitted).
UniProt P35462, whole entry, looked up: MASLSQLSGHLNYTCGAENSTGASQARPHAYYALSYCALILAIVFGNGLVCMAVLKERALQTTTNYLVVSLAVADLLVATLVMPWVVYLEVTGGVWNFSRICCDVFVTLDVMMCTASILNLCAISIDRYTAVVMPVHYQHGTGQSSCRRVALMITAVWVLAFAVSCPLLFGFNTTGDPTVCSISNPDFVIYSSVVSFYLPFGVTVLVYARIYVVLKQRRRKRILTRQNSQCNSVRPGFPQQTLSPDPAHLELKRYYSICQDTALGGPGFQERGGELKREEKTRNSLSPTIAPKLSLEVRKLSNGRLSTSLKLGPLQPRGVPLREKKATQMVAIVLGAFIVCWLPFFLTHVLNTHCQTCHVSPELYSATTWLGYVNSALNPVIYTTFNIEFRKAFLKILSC

| Compound | max response, negative = inhibition |
| --- | --- |
| Nc1nc(NC(=O)/C=C/c2ccc(F)cc2)nn1-c1ccccc1 | inconclusive: -37.2% |
| CC1CC(Nc2ccccc2)c2ccccc2N1C(=O)c1cccnc1 (stereo not drawn) | inconclusive: -41.7% |
| COc1cccc(C2c3c(-c4cc(Cl)c(C)cc4O)n[nH]c3C(=O)N2Cc2cccnc2)c1 (stereo not drawn) | inconclusive: -37.6% |
| Cc1cc(OCC(O)CN2CCN(C)CC2)ccc1C(C)C (stereo not drawn) | inconclusive: -30% |
| Cc1cccc(Nc2nc(-c3ccccn3)cs2)n1 | active: -79% |
| CC[n+]1c(/C=C/N(C)c2ccccc2)oc2ccc(F)cc21 | inconclusive: -38.9% |
| CCOC(=O)NC(=O)/C(C#N)=C\Nc1ccc(Cl)cc1Cl | inactive: 0.405% |
| O=C(Nc1cccc(Cl)c1)N1CCN(Cc2ccccc2)CC1 | inconclusive: -32.6% |
| O=C(C(Br)=Cc1ccccc1)c1ccccc1 | inconclusive: -45.5% |
| N#CCSc1nnc2ccc3ccccc3n12 | inconclusive: -49.1% |
| Cc1onc(-c2c(F)cccc2Cl)c1C(=O)Oc1ccccc1 | inconclusive: -32.4% |
| COc1ccc(C)cc1N(C(=O)Cn1nnc(-c2ccc(C)o2)n1)C(C(=O)NC1CCCC1)c1ccncc1 (stereo not drawn) | active: -57.8% |
| O=C(CSc1nnc(CN2CCOCC2)n1-c1ccc(Cl)cc1)Nc1cc(Cl)ccc1O | inconclusive: -42.8% |
| Cc1nnc(NC(=O)CCC(=O)N2CCN(CCOc3cccc4ccccc34)CC2)s1 | inconclusive: -31.7% |
| O=C(Nc1ncc2c(n1)-c1ccccc1OC2)c1ccccc1Cl | inactive: -19.1% |
| COc1ccc(C(=O)NCC(=O)N2CCN(C(=O)c3ccco3)CC2)cc1OC | inconclusive: -34.1% |
| CCOC(=O)CSc1nnc(CNC(=O)c2cccs2)n1CCc1ccccc1 | inconclusive: -42.6% |
| C[C@@]12C(=O)NCC(=O)N1[C@@H]1c3cc(Br)ccc3OC[C@@H]1[C@@H]2c1ccccc1 | inconclusive: -48.4% |
| COc1cc(/C=C/CNC[C@H]2O[C@@H](n3ccc(N)nc3=O)[C@H](O)[C@@H]2O)ccc1O | inconclusive: -41.2% |
| Cc1ccc(-c2nc3ccc(C)cn3c2Cc2ccccn2)cc1 | inactive: 45% |
| CCCCNC(=O)C1(C)CCN1C(=O)c1ccc(C(F)(F)F)nc1C (stereo not drawn) | inactive: -5.6% |
| N#Cc1nc(COc2ccccc2)oc1NCCN1CCOCC1 | inactive: 25% |

| Compound | max response, negative = inhibition |
| --- | --- |
| COc1cc(Cl)c(C)cc1NC(=O)CN1CCN(C(=O)c2cccs2)CC1 | inconclusive: -38.7% |
| O=c1ccc(Cc2ccccn2)n[nH]1 | inconclusive: -37.7% |
| CC(C)CCOc1ccc(C2(C)NC(=O)N(CN3CCOCC3)C2=O)cc1 (stereo not drawn) | inconclusive: -33.5% |
| CCn1c(SCC(N)=O)nc2ccccc2c1=O | inconclusive: -48.2% |
| O=C(O)c1ccc(NC(=O)c2cccc(C(=O)Nc3ccc(C(=O)O)cc3)c2)cc1 | inconclusive: -39.5% |
| CCCCn1c(N)c(N(Cc2ccccc2OC)C(=O)CSCC(=O)Nc2ccc(C)cc2)c(=O)[nH]c1=O | inconclusive: -32.5% |
| N/C(=N/OCC(=O)Nc1cccc2ccccc12)c1nonc1N | inconclusive: -37.4% |
| CCc1nc2ccc(C(=O)NC3CCN(Cc4ccccc4)CC3)cn2c1N(C)Cc1cc2ccccc2s1 | active: -67.7% |
| COC(=O)CSc1[nH]c2ccccc2c1[N+](=O)[O-] | inconclusive: -45.7% |
| COCCCn1c(SCC(=O)OC2CCCCC2)nnc1-c1ccco1 | inactive: -9.61% |
| CC(=NNC(=S)N1CC2CCC(CC2)C1)c1cccc(C)n1 | active: -72.7% |
| Cc1cc(Br)ccc1NC(=O)CN(C)C(=O)c1ccc(-n2cncn2)c([N+](=O)[O-])c1 | inactive: -13.9% |
| CC(C)CC1C(=O)N(Cc2cn(CCC3OCCCO3)nn2)CCS(=O)(=O)N1Cc1ccc(-c2ccccc2)cc1 (stereo not drawn) | inconclusive: -37.2% |
| CCOC(=O)C1=C(c2ccccc2)NC(SCC(=O)NC2CCCCC2)=C(C#N)C1c1ccco1 (stereo not drawn) | inconclusive: -36.5% |
| CC(C)C1(c2ccsc2)NC(=O)NC1=O (stereo not drawn) | inactive: 20% |
| CC(=O)C1=C(O)C(=O)N(c2ccc(Br)cn2)C1c1cccc([N+](=O)[O-])c1 (stereo not drawn) | inconclusive: -34% |
| COc1ccc2c(=O)c(-c3ccccc3)coc2c1 | inconclusive: -30.7% |
| NS(=O)(=O)c1ccc(NC(=O)CSc2nnc(-c3cnccn3)n2-c2ccccc2)cc1 | inconclusive: -40.2% |
| Cc1cccc(C(=O)NNC(=O)/C=C/C(=O)O)c1 | inconclusive: -30.6% |
| C=C1C(=O)OC2C1CCC(C)=CCCC1(C)OC21 (stereo not drawn) | active: -90% |
| COC(=O)CNC(=O)c1c(C)cc(=O)oc1C | inconclusive: -40.9% |
| O=C(N/N=C\c1ccccn1)c1ccccc1O | inconclusive: -40.9% |

An excerpt of these results, with bars between the fields.
Compound | max response, negative = inhibition
CCc1nc2ccc(C(=O)NC3CCN(Cc4ccccc4)CC3)cn2c1N(C)Cc1cc2ccccc2s1 | active: -67.7%
COC(=O)CSc1[nH]c2ccccc2c1[N+](=O)[O-] | inconclusive: -45.7%

Following part:

| Compound | max response, negative = inhibition |
| --- | --- |
| COc1ccccc1C(=O)N(CN1CCCC1=O)c1cccc(Cl)c1 | inactive: 16.7% |
| CCOc1cccc(/C=N/NC(=O)c2ccc3c(c2)OCCO3)c1O | inactive: -13.5% |
| Cc1cccc(N(C)c2cc(C)nc3nc(C)nn23)c1 | inconclusive: -34.7% |
| OCC(CO)(CO)N=Cc1cc(Br)ccc1O | inconclusive: -41.6% |
| O=C1/C(=C\c2ccc(Cl)c(Cl)c2)CN(C(=O)CCN2CCOCC2)C/C1=C/c1ccc(Cl)c(Cl)c1 | active: -79.3% |
| COc1cc(CN2CCc3ccccc3C2)cc([N+](=O)[O-])c1O | inconclusive: -48.6% |
| Cc1ccccc1NC(=O)NCCCN1CCN(c2ccccc2)CC1 | inconclusive: -31.7% |
| O=S(=O)(Nc1cccnc1)c1cccs1 | inconclusive: -42.7% |
| COC(=O)N=Nc1c(O)[nH]c2ccc(Br)cc12 | inactive: -24.8% |
| CC(=O)c1ccc(OCC(O)CN2CC(C)OC(C)C2)cc1 (stereo not drawn) | active: -55% |
| O=C1CN(C(=O)COC(=O)CCC(=O)c2ccc3c(c2)OCCO3)c2ccccc2N1 | inconclusive: -49.1% |
| O=C(COC(=O)/C=C/c1cccc(F)c1)NC1CC1 | inconclusive: -33.9% |
| COc1ccc(OCC(=O)Nc2ccc3c(c2)nc(CCN2CCC(C)CC2)n3C)cc1 | inconclusive: -32.9% |
| CC(=O)n1cc([C@@H]2C=C(C(=O)N3CCN(Cc4ccc5c(c4)OCO5)CC3)O[C@H](OCc3ccc(CO)cc3)C2)c2ccccc21 | inconclusive: -33.8% |
| Cc1ccc2nc(NC(=O)c3ccc(S(=O)(=O)N4CCCc5ccccc54)cc3)sc2c1 | inactive: 14% |
| Cn1c(/C=N/c2nc3ccccc3[nH]2)nc2ccccc21 | inactive: 7.76% |
| Cc1cccc(C(=O)Nc2ccc(C(=O)/C=C/c3ccncc3)cc2)c1 | inconclusive: -35.9% |
| OCC1(Cc2ccc(Cl)cc2)CCN(Cc2ccc(F)c(F)c2)CC1 | inconclusive: -40.4% |
| Cn1c(=O)c2c(n(C)c1=O)=NC1(CCCCC1)N=2 | inconclusive: -31.1% |
| O=C(c1ccccc1)N1CCN(Cc2c[nH]c3ccccc23)CC1 | active: -85.2% |
| COc1ccc(N2CC(C)Cn3c2nc2c3c(=O)n(Cc3ccccc3F)c(=O)n2C)c(OC)c1 (stereo not drawn) | inconclusive: -38.2% |
| COc1ccc(OCC(=O)N2CCN(c3cccc(Cl)c3)CC2)cc1 | inactive: -15.9% |

| Compound | max response, negative = inhibition |
| --- | --- |
| Cc1ccc(Oc2ncccc2C(=O)NCC(=O)O)cc1 | inconclusive: -30.6% |
| CCN1C(=O)[C@H]2[C@@H](c3ccc(-c4ccc(Cl)c(Cl)c4)cc3)N[C@@](C)(C(=O)OC)[C@H]2C1=O | inconclusive: -36.5% |
| CCOC(=O)N1CCN(C(=O)CSc2ccc3nnc(-c4cccnc4)n3n2)CC1 | active: -98.4% |
| C=C(C)Cn1c(N2CCN(CC)CC2)nc2c1c(=O)[nH]c(=O)n2C | inconclusive: -44.6% |
| Cc1cc(C)n2[nH]c(=O)c(N=Nc3cccc(C(F)(F)F)c3)c2n1 | inconclusive: -31.6% |
| COc1cc(/C=C2\SC(=S)N(NC(=O)c3ccccc3OC)C2=O)ccc1O | inconclusive: -30.6% |
| Cc1ccc(N2C(S)=C(C#N)C(=O)NC2c2ccco2)cc1 (stereo not drawn) | inactive: -1.58% |
| Cc1cc(C)n2nc(CCc3ccccc3)nc2n1 | inconclusive: -30.7% |
| Cc1ccc(-c2nnc3n2N=C(c2ccc(Br)cc2)CS3)cc1 | inactive: -10.9% |
| CCC(=O)N1CCc2cc(S(=O)(=O)NCCN3CCC(C)CC3)ccc21 | active: -90% |
| COc1cccc(Oc2ccc(N/C=C/C(=O)C(C)(C)C)cc2)c1 | inactive: 13.3% |
| Cc1cccc2cc(CN(Cc3ccco3)C(c3nnnn3CCc3ccccc3)C(C)C)c(=O)[nH]c12 (stereo not drawn) | inactive: 47.2% |
| C/C(N)=C(/C#N)C(=O)CSc1nc2cc(Cl)ccc2s1 | inconclusive: -48% |
| CCC(C)C(=O)N1c2ccccc2C(=C2SC(C(=O)OC)=C(C(=O)OC)S2)C(=S)C1(C)C (stereo not drawn) | inconclusive: -39.7% |
| CN(C)CCCNC(=O)c1cc2sc3ccccc3c2s1 | inconclusive: -44% |
| CCN(CC(=O)Nc1ccc2c(c1)CCC2)Cc1nc2ccccc2c(=O)[nH]1 | inactive: -0.659% |
| Cc1ccc2c(c1)N(CC(=O)NCCCN1CC(C)CC(C)C1)C(=O)c1cccnc1O2 (stereo not drawn) | inconclusive: -40.1% |
| C=C(C)C(=O)Nc1cccc(C2=NOC3(C2)C[C@H](C(N)=O)N(C(=O)C(c2ccccc2)c2ccccc2)C3)c1 (stereo partly drawn) | inconclusive: -42.1% |
| CCCCCCCCCCCn1nnnc1N | inactive: -12.1% |
| CCOC(=O)c1ccc(NC(=S)NCCc2ccccc2)cc1 | inactive: -5.63% |
| Nc1ccc(N2CCN(c3ccc(Cl)c(Cl)c3)CC2)cc1 | inactive: 9.72% |
| O=C(NCCc1ccccc1)c1ccc2nc3cc(Cl)ccc3c(=O)n2c1 | inactive: 5.62% |

3 compounds picked at random from the list so far:

| Compound | max response, negative = inhibition |
| --- | --- |
| N#Cc1nc(COc2ccccc2)oc1NCCN1CCOCC1 | inactive: 25% |
| O=C1CN(C(=O)COC(=O)CCC(=O)c2ccc3c(c2)OCCO3)c2ccccc2N1 | inconclusive: -49.1% |
| CC(C)CC1C(=O)N(Cc2cn(CCC3OCCCO3)nn2)CCS(=O)(=O)N1Cc1ccc(-c2ccccc2)cc1 (stereo not drawn) | inconclusive: -37.2% |
